Source: doi:10.1101/2021.11.04.467245 (bioRxiv, 2021)
No constants are given. Whether binding was seen depends on the method and setting. In cells and extracts the contact can be indirect. Some entries that bind do so weakly or less than the wild type.

By UniProt entry, the sequences of proteins in these tests, tags left out. Where a name states a change or a piece, a line headed by the entry shows the natural chain unless it says otherwise. Residues count along the entry.
UniProt Q8TD16: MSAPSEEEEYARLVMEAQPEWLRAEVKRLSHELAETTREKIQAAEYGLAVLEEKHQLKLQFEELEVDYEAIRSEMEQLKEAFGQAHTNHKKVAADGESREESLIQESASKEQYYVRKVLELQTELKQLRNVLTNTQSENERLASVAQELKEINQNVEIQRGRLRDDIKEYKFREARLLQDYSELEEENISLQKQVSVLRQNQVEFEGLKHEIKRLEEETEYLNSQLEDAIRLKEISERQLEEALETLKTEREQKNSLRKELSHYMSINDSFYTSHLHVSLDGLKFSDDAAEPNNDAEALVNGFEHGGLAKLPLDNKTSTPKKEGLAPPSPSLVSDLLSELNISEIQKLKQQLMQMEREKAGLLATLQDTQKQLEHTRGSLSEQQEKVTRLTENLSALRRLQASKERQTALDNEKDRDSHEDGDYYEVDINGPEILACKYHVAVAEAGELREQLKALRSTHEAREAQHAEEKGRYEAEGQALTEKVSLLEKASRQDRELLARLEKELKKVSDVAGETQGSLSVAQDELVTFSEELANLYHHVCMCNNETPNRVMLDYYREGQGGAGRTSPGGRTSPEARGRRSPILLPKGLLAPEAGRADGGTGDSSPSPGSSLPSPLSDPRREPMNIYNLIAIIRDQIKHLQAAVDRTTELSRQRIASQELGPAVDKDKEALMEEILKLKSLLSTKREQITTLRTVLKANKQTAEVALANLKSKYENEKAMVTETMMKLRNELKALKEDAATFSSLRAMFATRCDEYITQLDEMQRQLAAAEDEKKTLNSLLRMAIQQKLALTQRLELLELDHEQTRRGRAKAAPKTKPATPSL
UniProt Q921C5: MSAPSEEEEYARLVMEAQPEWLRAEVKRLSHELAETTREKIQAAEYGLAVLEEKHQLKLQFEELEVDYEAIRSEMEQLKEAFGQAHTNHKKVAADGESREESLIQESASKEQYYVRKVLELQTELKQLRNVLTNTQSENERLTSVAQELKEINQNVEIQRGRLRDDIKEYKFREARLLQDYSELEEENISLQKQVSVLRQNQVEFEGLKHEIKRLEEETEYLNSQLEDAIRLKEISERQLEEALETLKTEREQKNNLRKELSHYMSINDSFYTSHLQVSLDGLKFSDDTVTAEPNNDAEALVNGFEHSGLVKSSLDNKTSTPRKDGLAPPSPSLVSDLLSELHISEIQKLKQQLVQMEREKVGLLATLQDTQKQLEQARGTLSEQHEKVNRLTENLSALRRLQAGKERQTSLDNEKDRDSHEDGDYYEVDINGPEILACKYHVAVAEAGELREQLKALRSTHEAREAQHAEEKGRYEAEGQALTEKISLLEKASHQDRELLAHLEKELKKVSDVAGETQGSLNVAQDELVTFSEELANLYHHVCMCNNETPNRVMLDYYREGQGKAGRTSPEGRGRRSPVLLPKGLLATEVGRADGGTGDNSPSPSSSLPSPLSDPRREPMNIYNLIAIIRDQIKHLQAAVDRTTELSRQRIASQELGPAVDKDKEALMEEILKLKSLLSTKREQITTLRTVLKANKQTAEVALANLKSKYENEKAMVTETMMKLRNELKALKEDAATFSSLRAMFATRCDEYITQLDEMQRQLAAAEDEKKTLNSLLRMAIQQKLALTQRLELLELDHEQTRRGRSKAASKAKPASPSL
GFP-BICD2 [1-575]: residues 1-575 of Q921C5

Columns and labels:
Assay in all cases: co-IP
[1] = biological target: BICD2 (endogenous, HeLa) (human (endogenous in HeLa)) (UniProt Q8TD16)
[2] = biological target: GFP-BICD2 [1-575] (mouse) (UniProt Q921C5)
[3] = biological target: GFP-BICD2 [T319A, S320A, T321A] (mouse) (UniProt Q921C5)
[4] = biological target: GFP-BICD2 wild type (mouse) (UniProt Q921C5)

PLK1 (endogenous, HeLa) (from UniProt P53350 1-603) (enzyme)
binding [1]: binds | binding [2]: binds | binding [3]: no binding | binding [4]: binds
